Literature values as cited in patent US20090214648A1 (priority 2008, published 2009).

[1] = oral, single dose of a diphenhydramine salt

CN(C)CCOC(c1ccccc1)c1ccccc1 [Diphenhydramine, [2-(diphenylmethoxy)ethyl]dimethylamine]
Oral absorption (oral administration): well absorbed | Time to peak plasma concentrations [1]: 1.5 to 4 h | Time until the drug appears in plasma [1]: ≤ 15 min
